This is an account of results in article doi:10.1101/2023.02.18.529092.

Chains of the proteins cited; added tags and fusions are not shown.
UniProt P08753: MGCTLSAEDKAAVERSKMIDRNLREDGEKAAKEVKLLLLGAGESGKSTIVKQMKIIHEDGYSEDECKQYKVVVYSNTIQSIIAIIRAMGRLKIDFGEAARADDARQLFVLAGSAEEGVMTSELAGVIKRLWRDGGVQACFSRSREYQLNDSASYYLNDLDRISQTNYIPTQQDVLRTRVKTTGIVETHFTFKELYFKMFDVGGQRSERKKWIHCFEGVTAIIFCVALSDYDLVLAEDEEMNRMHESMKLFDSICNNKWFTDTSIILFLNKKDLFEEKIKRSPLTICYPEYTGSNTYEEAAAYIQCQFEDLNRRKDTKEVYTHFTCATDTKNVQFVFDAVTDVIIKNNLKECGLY

Results are given in words; binding and its absence hold for the method and conditions named. For some assays here: Binding seen in cells or lysates may run through a third protein. Some results given as binding are weak or reduced against the parent protein; the word gives no strength. For some assays here: Sequences can lack the tags named with a protein.

The target in one assay is T1, GST-GIV (aa 1671-1755) (UniProt Q3V6T2).
T1 sequence: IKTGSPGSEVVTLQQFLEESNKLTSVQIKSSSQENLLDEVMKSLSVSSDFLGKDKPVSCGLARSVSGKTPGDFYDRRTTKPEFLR
Description: pull-down.

For assay [1], the target named is Gαi3 in membranes isolated from HEK293T cells (BRET assay) (UniProt P08753). The assay can be described thus: FRET or BRET. In general terms: In BRET a luciferase serves as donor, and the signal depends on an acceptor being close.

In the case of “Gαi3 (purified; His-Gαi3 in the pull-down) (from UniProt P08753 1-354)”, the binding result in the assay with GST-GIV (aa 1671-1755) is recorded as “binds”.

AEEFFELISKAQSNRADDQRGLL (peptide, UniProt O14924 1187-1209) [R12 GL (GoLoco peptide derived from RGS12)]: the binding entry in assay [1] is “binds”.
